Experimental findings from patent publication US20240043860A1, “NOVEL HYDROXYPHENYLPYRUVATE DIOXYGENASE POLYPEPTIDES AND METHODS OF USE THEREOF” (Syngenta Crop Protection AG, priority 2020, published 2024) are described below.

Certain results were filed several times, with different values. Only these are listed. There may be further records. The records of an entry appear to be repeats (runs, samples, wells or individuals); one of them may be the mean.

Test [1] has as its system transgenic tobacco plants expressing mutant HPPD SEQ ID NO: 9. Nature of the test: spray test, herbicidal damage scoring. In kind it is in vivo. The settings on record: Table 3.4; 14 days after treatment; SEQ ID 9; 100=complete death, 0=no damage; one value per event. As to the method: (§1) Avena sativa HPPD or orthologues and variants thereof, for example SEQ IDs 1-63 and 122-127, were expressed in transgenic tobacco. DNA sequences that encode these polypeptides (optimized for tobacco or, optionally, codon optimized according to a target crop such as soybean) were prepared synthetically. Each sequence was designed to include a 5′ fusion with TMV omega 5′ leader sequence such that they are flanked at the 5′ end with XhoI and at the 3′ end with KpnI to facilitate direct cloning into a suitable binary vector for Agrobacterium-based plant transformation.
(§2) In one example, the TMV omega 5′ leader and a HPPD encoding gene of interest is excised using XhoI/KpnI and cloned into similarly digested binary vector pBIN 19 (Bevan, Nucl. Acids Res. (1984) behind a double enhanced 35S promoter ahead of a NOS 3′ transcription terminator and then transformed into E. coli DH5 alpha competent cells. DNA recovered from the E. coli is used to transform Agrobacterium tumefaciens LBA4404, and transformed bacteria are selected on media contain rifampicin and kanamycin. Tobacco tissue is subjected to Agrobacterium-mediated transformation using methods well described in the art or as described herein. For example, a master plate of Agrobacterium tumefaciens containing the HPPD expressing the binary vector is used to inoculate 10 ml LB (L broth) containing 100 mg/l Rifampicin plus 50 mg/l Kanamycin using a single bacterial colony. This is incubated overnight at 28° C. shaking at 200 rpm. This entire overnight culture is used to inoculate a 50 ml volume of LB containing the same antibiotics. Again this is cultured overnight at 28° C. shaking at 200 rpm. […]
(§3) Plants are assessed for damage and scored at, for example, 7 and 14 days after treatment (DAT). […]
(§4) Plants of events showing the least damage are grown to flowering, then bagged and allowed to self. […] Single copy events amongst the Ti plant lines are identified by their 3:1 segregation ratio (with respect to kanamycin and/or herbicide) and by quantitative RT-PCR. […]

In test [2] the test system is transgenic tobacco plants expressing mutant HPPD SEQ ID 20. Nature of the test: spray test, herbicidal damage scoring. The class given is in vivo. The settings on record: Table 3.3, 14 days after treatment, 100=complete death, 0=no damage, one value per event. On the procedure: as §1, §2, §3, §4

`COc1ccc(-n2nc(C)cc(C(=O)C3C(=O)CCCC3=O)c2=O)cc1OC` [Herbicide C, dioxopyritrione]: in test [1], the “herbicidal damage scoring, Herbicide C 200 g/ha” value is 45, 35, 90, 40 and the “herbicidal damage scoring, Herbicide C (100 g/ha)” value was 25, 10, 75.

In the case of `COCCOCc1nc(C(F)(F)F)ccc1C(O)=C1C(=O)C2CCC(C2)C1=O`, the “herbicidal damage scoring, Bicyclopyrone 800 g/ha” value in test [2] is 55, 60, 40, 10, 30.
